13 substances from the supplement of paper PMC3353916 can be followed below.

This is a noisy data set.

The subject of this series is Sindbis virus TE/5'2J-GFP. The series is described as follows: percent infected (GFP+ in RFP+ ISG-expressing cells); higher = more infection (less antiviral activity). The conditions noted are these: experiment: primary screen (single well).

For the substance “MNAAASSYPMASLYVGDLHSDVTEAMLYEKFSPAGPVLSIRVCRDMITRRSLGYAYVNFQQPADAERALDTMNFDVIKGKPIRIMWSQRDPSLRKSGVGNVFIKNLDKSIDNKALYDTFSAFGNILSCKVVCDENGSKGYAFVHFETQEAADKAIEKMNGMLLNDRKVFVGRFKSRKEREAELGAKAKEFTNVYIKNFGEEVDDESLKELFSQFGKTLSVKVMRDPNGKSKGFGFVSYEKHEDANKAVEEMNGKEISGKIIFVGRAQKKVERQAELKRKFEQLKQERISRYQGVNLYIKNLDDTIDDEKLRKEFSPFGSITSAKVMLEDGRSKGFGFVCFSSPEEATKAVTEMNGRIVGSKPLYVALAQRKEERKAHLTNQYMQRVAGMRALPANAILNQFQPAAGGYFVPAVPQAQGRPPYYTPNQLAQMRPNPRWQQGGRPQGFQGMPSAIRQSGPRPTLRHLAPTGSECPDRLAMDFGGAGAAQQGLTDSCQSGGVPTAVQNLAPRAAVAAAAPRAVAPYKYASSVRSPHPAIQPLQAPQPAVHVQGQEPLTASMLAAAPPQEQKQMLGERLFPLIQTMHSNLAGKITGMLLEIDNSELLHMLESPESLRSKVDEAVAVLQAHHAKKEAAQKVGAVAAATS [PABPC4]”, for the setting “BHK/HA-Zeo (control)”, the percent infected was 95.9%.
As to “MTEAGKLPLPLPPRLDWFVHTQMGQLAQDGVPEWFHGAISREDAENLLESQPLGSFLIRVSHSHVGYTLSYKAQSSCCHFMVKLLDDGTFMIPGEKVAHTSLDALVTFHQQKPIEPRRELLTQPCRQKDPANVDYEDLFLYSNAVAEEAACPVSAPEEASPKPVLCHQSKERKPSAEMNRITTKEATSSCPPKSPLGETRQKLWRSLKMLPERGQRVRQQLKSHLATVNLSSLLDVRRSTVISGPGTGKGSQDHSGDPTSGDRGYTDPCVATSLKSPSQPQAPKDRKVPTRKAERSVSCIEVTPGDRSWHQMVVRALSSQESKPEHQGLAEPENDQLPEEYQQPPPFAPGYC [HSH2D]”, the percent infected amounted to 96.9% (BHK/HA-Zeo (control)) and 94.3% (BHK/NZAP-Zeo (ZAP)).
For C9orf91, in that order: 98.9% and 97.6%.
“MHLCGGNGLLTQTDPKEQQRQLKKQKNRAAAQRSRQKHTDKADALHQQHESLEKDNLALRKEIQSLQAELAWWSRTLHVHERLCPMDCASCSAPGLLGCWDQAEGLLGPGPQGQHGCREQLELFQTPGSCYPAQPLSPGPQPHDSPSLLQCPLPSLSLGPAVVAEPPVQLSPSPLLFASHTGSSLQGSSSKLSALQPSLTAQTAPPQPLELEHPTRGKLGSSPDNPSSALGLARLQSREHKPALSAATWQGLVVDPSPHPLLAFPLLSSAQVHF [BATF2]”: the percent infected was 90.7% (BHK/HA-Zeo (control)) and 80.5% (BHK/NZAP-Zeo (ZAP)).
On to “MERISAFFSSIWDTILTKHQEGIYNTICLGVLLGLPLLVIITLLFICCHCCWSPPGKRGQQPEKNKKKKKKKKKKDEEDLWISAQPKLLQMEKRPSLPV [KIAA0040]”, for which the percent infected was determined as 97.2% (BHK/HA-Zeo (control)) and 81.2% (BHK/NZAP-Zeo (ZAP)).
For “MAFMEKPPAGKVLLDDTVPLTAAIEASQSLQSHTEYIIRVQRGISVENSWQIVRRYSDFDLLNNSLQIAGLSLPLPPKKLIGNMDREFIAERQKGLQNYLNVITTNHILSNCELVKKFLDPNNYSANYTEIALQQVSMFFRSEPKWEVVEPLKDIGWRIRKKYFLMKIKNQPKERLVLSWADLGPDKYLSDKDFQCLIKLLPSCLHPYIYRVTFATANESSALLIRMFNEKGTLKDLIYKAKPKDPFLKKYCNPKKIQGLELQQIKTYGRQILEVLKFLHDKGFPYGHLHASNVMLDGDTCRLLDLENSLLGLPSFYRSYFSQFRKINTLESVDVHCFGHLLYEMTYGRPPDSVPVDSFPPAPSMAVVAVLESTLSCEACKNGMPTISRLLQMPLFSDVLLTTSEKPQFKIPTKLKEALRIAKECIEKRLIEEQKQIHQHRRLTRAQSHHGSEEERKKRKILARKKSKRSALENSEEHSAKYSNSNNSAGSGASSPLTSPSSPTPPSTSGISALPPPPPPPPPPAAPLPPASTEAPAQLSSQAVNGMSRGALLSSIQNFQKGTLRKAKTCDHSAPKIG [PXK]”, in that order: 98.4% and 97.4%.
As for “MTEALQWARYHWRRLIRGATRDDDSGPYNYSSLLACGRKSSQTPKLSGRHRIVVPHIQPFKDEYEKFSGAYVNNRIRTTKYTLLNFVPRNLFEQFHRAANLYFLFLVVLNWVPLVEAFQKEITMLPLVVVLTIIAIKDGLEDYRKYKIDKQINNLITKVYSRKEKKYIDRCWKDVTVGDFIRLSCNEVIPADMVLLFSTDPDGICHIETSGLDGESNLKQRQVVRGYAEQDSEVDPEKFSSRIECESPNNDLSRFRGFLEHSNKERVGLSKENLLLRGCTIRNTEAVVGIVVYAGHETKAMLNNSGPRYKRSKLERRANTDVLWCVMLLVIMCLTGAVGHGIWLSRYEKMHFFNVPEPDGHIISPLLAGFYMFWTMIILLQVLIPISLYVSIEIVKLGQIYFIQSDVDFYNEKMDSIVQCRALNIAEDLGQIQYLFSDKTGTLTENKMVFRRCSVAGFDYCHEENARRLESYQEAVSEDEDFIDTVSGSLSNMAKPRAPSCRTVHNGPLGNKPSNHLAGSSFTLGSGEGASEVPHSRQAAFSSPIETDVVPDTRLLDKFSQITPRLFMPLDETIQNPPMETLYIIDFFIALAICNTVVVSAPNQPRQKIRHPSLGGLPIKSLEEIKSLFQRWSVRRSSSPSLNSGKEPSSGVPNAFVSRLPLFSRMKPASPVEEEVSQVCESPQCSSSSACCTETEKQHGDAGLLNGKAESLPGQPLACNLCYEAESPDEAALVYAARAYQCTLRSRTPEQVMVDFAALGPLTFQLLHILPFDSVRKRMSVVVRHPLSNQVVVYTKGADSVIMELLSVASPDGASLEKQQMIVREKTQKHLDDYAKQGLRTLCIAKKVMSDTEYAEWLRNHFLAETSIDNREELLLESAMRLENKLTLLGATGIEDRLQEGVPESIEALHKAGIKIWMLTGDKQETAVNIAYACKLLEPDDKLFILNTQSKDACGMLMSTILKELQKKTQALPEQVSLSEDLLQPPVPRDSGLRAGLIITGKTLEFALQESLQKQFLELTSWCQAVVCCRATPLQKSEVVKLVRSHLQVMTLAIGDGANDVSMIQVADIGIGVSGQEGMQAVMASDFAVSQFKHLSKLLLVHGHWCYTRLSNMILYFFYKNVAYVNLLFWYQFFCGFSGTSMTDYWVLIFFNLLFTSAPPVIYGVLEKDVSAETLMQLPELYRSGQKSEAYLPHTFWITLLDAFYQSLVCFFVPYFTYQGSDTDIFAFGNPLNTAALFIVLLHLVIESKSLTWIHLLVIIGSILSYFLFAIVFGAMCVTCNPPSNPYWIMQEHMLDPVFYLVCILTTSIALLPRFVYRVLQGSLFPSPILRAKHFDRLTPEERTKALKKWRGAGKMNQVTSKYANQSAGKSGRRPMPGPSAVFAMKSASSCAIEQGNLSLCETALDQGYSETKAFEMAGPSKGKES [ATP10D]”, under “BHK/NZAP-Zeo (ZAP)”, the percent infected was 96.7%.
For the substance “MEQHFLGCVKRAWDSAEVAPEPQPPPIVSSEDRGPWPLPLYPVLGEYSLDSCDLGLLSSPCWRLPGVYWQNGLSPGVQSTLEPSTAKPTEFSWPGTQKQQEAPVEEVGQAEEPDRLRLQQLPWSSPLHPWDRQQDTEVCDSGCLLERRHPPALQPWRHLPGFSDCLEWILRVGFAAFSVLWACCSRICGAKQP [C5orf39]”, the percent infected by setting is: (BHK/HA-Zeo (control)) 96.8%; (BHK/NZAP-Zeo (ZAP)) 48.1%.
The matching figures for “MTLRCLEPSGNGGEGTRSQWGTAGSAEEPSPQAARLAKALRELGQTGWYWGSMTVNEAKEKLKEAPEGTFLIRDSSHSDYLLTISVKTSAGPTNLRIEYQDGKFRLDSIICVKSKLKQFDSVVHLIDYYVQMCKDKRTGPEAPRNGTVHLYLTKPLYTSAPSLQHLCRLTINKCTGAIWGLPLPTRLKDYLEEYKFQV [SOCS2]”: 91.5% and 78.8%.
As for “MKVTSLDGRQLRKMLRKEAAARCVVLDCRPYLAFAASNVRGSLNVNLNSVVLRRARGGAVSARYVLPDEAARARLLQEGGGGVAAVVVLDQGSRHWQKLREESAARVVLTSLLACLPAGPRVYFLKGGYETFYSEYPECCVDVKPISQEKIESERALISQCGKPVVNVSYRPAYDQGGPVEILPFLYLGSAYHASKCEFLANLHITALLNVSRRTSEACATHLHYKWIPVEDSHTADISSHFQEAIDFIDCVREKGGKVLVHCEAGISRSPTICMAYLMKTKQFRLKEAFDYIKQRRSMVSPNFGFMGQLLQYESEILPSTPNPQPPSCQGEAAGSSLIGHLQTLSPDMQGAYCTFPASVLAPVPTHSTVSELSRSPVATATSC [DUSP5]”, the percent infected is, setting by setting: (BHK/HA-Zeo (control)) 97.5%; (BHK/NZAP-Zeo (ZAP)) 91.2%.
The matching figures for “MNTIVFNKLSGAVLFEDGGASERERGGRPYSGVLDSPHARPEVGIPDGPPLKDNLGLRHRRTGARQNGGKVRHKRQALQDMARPLKQWLYKHRDNPYPTKTEKILLALGSQMTLVQVSNWFANARRRLKNTVRQPDLSWALRIKLYNKYVQGNAERLSVSSDDSCSEDGENPPRTHMNEGGYNTPVHHPVIKSENSVIKAGVRPESRASEDYVAPPKYKSSLLNRYLNDSLRHVMATNTTMMGKTRQRNHSGSFSSNEFEEELVSPSSSETEGNFVYRTDTLENGSNKGESAANRKGPSKDDTYWKEINAAMALTNLAQGKDKLQGTTSCIIQKSSHIAEVKTVKVPLVQQF [MKX]”: 69.4% and 55.2%.
For CSDA, in that order: 93.8% and 89.3%.
The matching figures for “MAFSGSQAPYLSPAVPFSGTIQGGLQDGLQITVNGTVLSSSGTRFAVNFQTGFSGNDIAFHFNPRFEDGGYVVCNTRQNGSWGPEERKTHMPFQKGMPFDLCFLVQSSDFKVMVNGILFVQYFHRVPFHRVDTISVNGSVQLSYISFQNPRTVPVQPAFSTVPFSQPVCFPPRPRGRRQKPPGVWPANPAPITQTVIHTVQSAPGQMFSTPAIPPMMYPHPAYPMPFITTILGGLYPSKSILLSGTVLPSAQRFHINLCSGNHIAFHLNPRFDENAVVRNTQIDNSWGSEERSLPRKMPFVRGQSFSVWILCEAHCLKVAVDGQHLFEYYHRLRNLPTINRLEVGGDIQLTHVQT [LGALS9]”: 97.5% and 94.4%.
